Earlier results in patent US9119401B2, “Plant glutamine synthetase inhibitors and methods for their identification” (priority 2012, dated 2015).
For at least one compound, name, drawing or mass did not settle the structure.

How the values were obtained:
[1] = tested on: B. cepacia complex strains isolated from cystic fibrosis patients; conditions: of 2,621 B. cepacia complex strains, Zhou et al., 2007; cited from earlier work
B. cepacia isolates = conditions: 366 B. cepacia isolates, Pitt et al., 1996; cited from earlier work

In the case of `C[C@@H](O)[C@H]1C(=O)N2C(C(=O)O)=C(SCCN=CN)C[C@H]12` [Imipenem], the strains susceptible [1] is given as 7% and the “antibiotic resistance of isolates (in words)” value (B. cepacia isolates) is given as “most of them are resistant”.
